Record: PubChem BioAssay AID1259327 (Drosophila RNAi Screening Center, 2017)
Purpose: 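Data from controls in screens of zinc and manganese toxicity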. Cells: Drosophila S2R+ cells. Reagents: long dsRNA against Drosophila genes. Duration: 5 days (water added on day 4, read one day later). Conditions: water added as vehicle, no metal, one day before read-out. Read-out: 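Luciferase ATP signal per well, normalised to plate mean, duplicate average converted to z-score across plates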. Reading the numbers: ATP z-score: higher = more total ATP than typical wells; ATP luminescence: higher = more total ATP. Rule for the call: 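Called active when the ATP z-score exceeds 1.5 or falls below -1.5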. Meaning of the calls: active = hit: ATP up or down; inactive = no clear ATP change.
Here is one part, drawn at random, of about 3,100 reagents. Of all reagents, 378 (12%) were called active. 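Hits include both directions; z-score sign shows ATP rise or fall; raw luminescence values are not plate-normalised.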 Names joined by + are all predicted targets of the reagent. Reagent sequences are not shown. The record does not give: the amount of reagent.

gene,amplicon,"ATP z-score, duplicate mean","ATP luminescence, replicate 1 (RLU)","ATP luminescence, replicate 2 (RLU)",call
Trp1 (Translocation protein 1),DRSC03465,1.24,8.26e5,8.89e5,inactive
Trp1 (Translocation protein 1),DRSC24685,0.151,6.94e5,1.05e6,inactive
Syx16 (Syntaxin 16),DRSC20507,0.143,7.23e5,7.18e5,inactive
Syx16 (Syntaxin 16),DRSC27163,-1.29,9.20e5,1.05e6,inactive
Poxm + Ctr1B,DRSC16245,0.269,3.40e5,7.18e5,inactive
Poxm + Ctr1B,DRSC39592,-0.204,4.33e5,4.71e5,inactive
fzo (fuzzy onions),DRSC16954,-0.176,3.10e5,6.96e5,inactive
fzo (fuzzy onions),DRSC39864,-0.7,5.11e5,5.39e5,inactive
por (porcupine),DRSC29877,1.93,7.54e5,7.33e5,active
por (porcupine),DRSC39827,1.37,5.42e5,6.10e5,inactive
heix (heixuedian),DRSC03542,2.48,6.96e5,6.05e5,active
heix (heixuedian),DRSC39734,0.115,4.58e5,4.89e5,inactive
mys (myospheroid),DRSC18799,0.458,5.94e5,8.27e5,inactive
mys (myospheroid),DRSC29061,-0.927,7.33e5,6.91e5,inactive
CG5281,DRSC15761,-0.356,3.01e5,6.79e5,inactive
CG5281,DRSC39880,-2.01,3.73e5,4.56e5,active
SP1173,DRSC11277,0.445,8.06e5,7.50e5,inactive
CG11262,DRSC09831,-0.555,8.62e5,7.86e5,inactive
CG11262,DRSC39465,-0.344,4.37e5,4.24e5,inactive
slv (saliva),DRSC07685,-0.844,5.46e5,5.41e5,inactive
Atg9 (Autophagy-related 9),DRSC38118,0.259,5.68e5,6.36e5,inactive
Atg9 (Autophagy-related 9),DRSC38119,-0.43,5.42e5,5.44e5,inactive
ppk14 (pickpocket 14),DRSC03238,1.35,8.35e5,9.04e5,inactive
ppk14 (pickpocket 14),DRSC39786,0.311,5.69e5,4.28e5,inactive
fra (frazzled),DRSC07621,0.0491,6.59e5,5.89e5,inactive
CG3156,DRSC27939,0.401,7.60e5,9.85e5,inactive
CG3156,DRSC39874,-2.66,3.01e5,4.19e5,active
Osi22 (Osiris 22),DRSC16442,-0.54,2.79e5,6.94e5,inactive
Osi22 (Osiris 22),DRSC27176,-0.572,8.67e5,9.70e5,inactive
CG15706,DRSC06577,-0.282,6.23e5,5.65e5,inactive
CG15706,DRSC39576,-0.706,4.31e5,4.03e5,inactive
rho (rhomboid),DRSC08734,2.08,8.09e5,8.07e5,active
rho (rhomboid),DRSC39615,1.4,5.99e5,5.20e5,inactive
MME1 (Mitochondrial Magnesium Exporter 1),DRSC02714,0.0998,4.90e5,4.82e5,inactive
MME1 (Mitochondrial Magnesium Exporter 1),DRSC39544,-0.129,4.79e5,4.12e5,inactive

Called active, among the entries above:
gene,amplicon,"ATP z-score, duplicate mean","ATP luminescence, replicate 1 (RLU)","ATP luminescence, replicate 2 (RLU)",call
por (porcupine),DRSC29877,1.93,7.54e5,7.33e5,active
heix (heixuedian),DRSC03542,2.48,6.96e5,6.05e5,active
CG5281,DRSC39880,-2.01,3.73e5,4.56e5,active
CG3156,DRSC39874,-2.66,3.01e5,4.19e5,active
rho (rhomboid),DRSC08734,2.08,8.09e5,8.07e5,active

The listing continues.
gene,amplicon,"ATP z-score, duplicate mean","ATP luminescence, replicate 1 (RLU)","ATP luminescence, replicate 2 (RLU)",call
Grl40a (Gustatory receptor-like 40a),DRSC03677,2.01,9.53e5,9.70e5,active
Grl40a (Gustatory receptor-like 40a),DRSC39639,1.39,6.02e5,5.16e5,inactive
emei,DRSC10897,0.0946,7.34e5,7.73e5,inactive
emei,DRSC22684,5.24,9.84e5,1.06e6,active
CG3803,DRSC04420,0.267,7.64e5,7.45e5,inactive
Nach,DRSC07478,-1.5,5.14e5,4.53e5,active
Nach,DRSC39863,-2.27,4.01e5,3.78e5,active
PGRP-LB (Peptidoglycan recognition protein LB),DRSC14926,0.76,7.69e5,7.98e5,inactive
PGRP-LB (Peptidoglycan recognition protein LB),DRSC39813,0.716,5.37e5,5.21e5,inactive
tw (twisted),DRSC18537,-0.0612,7.14e5,6.85e5,inactive
tw (twisted),DRSC39796,-0.923,4.01e5,4.28e5,inactive
Or65c (Odorant receptor 65c),DRSC21312,-0.776,4.52e5,5.77e5,inactive
Or65c (Odorant receptor 65c),DRSC39421,-1.84,3.57e5,3.06e5,active
PIG-Q (Phosphatidylinositol glycan anchor biosynthesis class Q),DRSC19138,1.05,7.33e5,6.95e5,inactive
PIG-Q (Phosphatidylinositol glycan anchor biosynthesis class Q),DRSC39435,0.132,4.68e5,4.55e5,inactive
CG6790,DRSC16117,-0.063,7.28e5,6.71e5,inactive
Tsp42Ec (Tetraspanin 42Ec),DRSC06192,0.866,8.56e5,5.39e5,inactive
Tsp42Ec (Tetraspanin 42Ec),DRSC26768,-0.997,1.00e6,9.83e5,inactive
CG6974,DRSC16160,0.575,2.74e5,9.55e5,inactive
MFS3 (Major Facilitator Superfamily Transporter 3),DRSC00664,-0.199,6.96e5,6.75e5,inactive
MFS3 (Major Facilitator Superfamily Transporter 3),DRSC28601,0.386,9.07e5,8.35e5,inactive
Gr64f (Gustatory receptor 64f),DRSC08447,-0.0418,9.07e5,8.74e5,inactive
Gr64f (Gustatory receptor 64f),DRSC25964,-0.682,7.96e5,7.35e5,inactive
CG32079,DRSC22636,1.02,6.99e5,6.32e5,inactive
CG32079,DRSC39426,-0.819,3.86e5,4.10e5,inactive
Appl (beta amyloid protein precursor-like),DRSC27476,1.01,1.00e6,1.12e6,inactive
Appl (beta amyloid protein precursor-like),DRSC39441,-0.193,4.36e5,4.44e5,inactive
Cnx14D + Cnx99A,DRSC16610,1.62,6.19e5,6.95e5,active
CG8630,DRSC16441,1.36,3.69e5,8.86e5,inactive
CG8630,DRSC24081,-0.829,7.77e5,7.17e5,inactive
TM9SF2 (Transmembrane 9 superfamily protein member 2),DRSC03197,-1.53,3.88e5,3.55e5,active
TM9SF2 (Transmembrane 9 superfamily protein member 2),DRSC39485,-1.17,4.03e5,3.49e5,inactive
CG32081,DRSC09861,0.268,9.20e5,9.41e5,inactive
CG32081,DRSC39618,-0.901,4.21e5,3.86e5,inactive
CG5104,DRSC11765,0.303,9.51e5,9.20e5,inactive
CG5104,DRSC39641,-0.328,4.37e5,4.49e5,inactive
VhaPPA1-2 (Vacuolar H[+] ATPase PPA1 subunit 2),DRSC16176,0.0311,2.97e5,7.74e5,inactive
VhaPPA1-2 (Vacuolar H[+] ATPase PPA1 subunit 2),DRSC25591,0.284,8.83e5,8.88e5,inactive
Ctr1A (Copper transporter 1A),DRSC18336,-2.44,3.86e5,4.89e5,active
Ndae1 (Na[+]-driven anion exchanger 1),DRSC02770,1.28,4.57e5,6.89e5,inactive
Ndae1 (Na[+]-driven anion exchanger 1),DRSC39781,1.32,5.42e5,6.03e5,inactive
ACXA (Adenylyl cyclase X A),DRSC25338,-0.24,8.51e5,7.90e5,inactive
ACXA (Adenylyl cyclase X A),DRSC39549,-0.773,3.58e5,4.70e5,inactive
CG30043,DRSC06285,-1.43,5.63e5,4.18e5,inactive
CG30043,DRSC39455,-0.0903,4.48e5,4.45e5,inactive
Tom20 (Translocase of outer membrane 20),DRSC10899,0.433,7.57e5,7.99e5,inactive
mthl1 (methuselah-like 1),DRSC19905,0.0402,7.44e5,7.50e5,inactive
mthl1 (methuselah-like 1),DRSC39903,-0.373,5.41e5,5.65e5,inactive
CG11566 (retired record) + stg1,DRSC20482,0.503,8.59e5,7.30e5,inactive
CG11566 (retired record) + stg1,DRSC20483,-0.735,6.41e5,6.86e5,inactive
aralar1,DRSC16901,-0.981,6.04e5,6.05e5,inactive
aralar1,DRSC29693,-0.0919,1.02e6,6.21e5,inactive
